Reference: PMC11124914
No constants are given. Whether binding was seen depends on the method and setting. In cells and extracts the contact can be indirect. Some results given as binding are weak or reduced against the parent protein; the word gives no strength. Tags and fused reporters may be left off the sequences shown.

By UniProt entry, the sequences of proteins in these tests, tags left out.
UniProt P63279: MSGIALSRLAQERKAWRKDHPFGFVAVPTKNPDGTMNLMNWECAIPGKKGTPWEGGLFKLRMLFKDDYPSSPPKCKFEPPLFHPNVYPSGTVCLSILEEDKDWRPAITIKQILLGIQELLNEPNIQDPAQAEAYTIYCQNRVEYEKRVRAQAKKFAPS

Target: T1, human organic anion transporter 3 (OAT3), myc-tagged (human) (UniProt Q8TCC7)
T1 sequence: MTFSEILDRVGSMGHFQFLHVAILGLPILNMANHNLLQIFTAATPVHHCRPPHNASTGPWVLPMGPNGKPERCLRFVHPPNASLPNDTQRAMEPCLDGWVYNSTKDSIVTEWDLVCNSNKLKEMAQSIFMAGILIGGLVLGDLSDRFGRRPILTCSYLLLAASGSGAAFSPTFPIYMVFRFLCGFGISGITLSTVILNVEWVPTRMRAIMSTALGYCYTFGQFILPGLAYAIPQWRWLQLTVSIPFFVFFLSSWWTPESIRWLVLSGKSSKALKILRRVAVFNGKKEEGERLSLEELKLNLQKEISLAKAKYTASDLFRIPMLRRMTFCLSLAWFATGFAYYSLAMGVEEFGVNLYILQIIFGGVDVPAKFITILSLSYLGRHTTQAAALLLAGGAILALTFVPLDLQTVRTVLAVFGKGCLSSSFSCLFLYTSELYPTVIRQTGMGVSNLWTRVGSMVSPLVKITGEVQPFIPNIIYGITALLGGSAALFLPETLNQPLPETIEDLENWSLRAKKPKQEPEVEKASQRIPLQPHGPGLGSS
Test: co-IP; OAT3 immunoprecipitated with an anti-myc antibody on protein G resin from lysates (~1000 ug total protein, 4 °C overnight) of OAT3-expressing cells treated with or without topotecan (1 µM, 12 h); blots with anti-Ubc9 or anti-SENP2

SUMO-conjugating enzyme E2 (Ubc9), endogenous (from UniProt P63279 1-158)
binding: binds
